A short description of the assay: qHTS Assay for Lipid Storage Modulators in Drosophila S3 Cells.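 For cell number change: cells counted by Cell Tracker Red CMTPX staining in the red channel.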 Particulars: BODIPY lipid droplet fluorescence, 18-24 h; for cell number change: measured here: cell count max response, cells fed with added oleic acid. Put shortly: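 Laser-scanning cytometry quantifies lipid droplet accumulation (500–530 nm total intensity; droplet/cell object ratio) in oleic acid-fed (400 uM added) Drosophila S3 cells treated with a concentration series. 20 uM Triacsin C defined 100% inhibition.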

The mark [1] stands for this setting: measured here: cell number channel AC50, cells fed with added oleic acid.
Setting [2] is: measured here: lipid fluorescence (Fed channel) AC50, cells fed with added oleic acid.

The list shows a part of the results. Shown are side measurements of this screen, not its main read-out; they come without a call. Most of these compounds were active or inconclusive in the main read-out, so they are no random draw. The note in brackets gives the kind of curve behind each potency; many fits are weak.

For 59 compounds, cell number change and AC50 results are on record in PubChem BioAssay AID2685 (National Center for Advancing Translational Sciences (NCATS), 2010).

On to `OC(c1ccccc1)(c1ccccc1)c1ccn[nH]1`, for which the cell number change was -4.95%. Moreover, the AC50 under setting [1] was 1.16 µM [falling, full curve, poor fit]. For the same compound, the concentration at half-maximal activity (AC50) under setting [2] is 0.92 µM [falling, full curve, poor fit]. As for `Cc1cc(C)n(-c2nc(NCCN(C)C)c3c4c(sc3n2)CCCC4)n1`, the cell number change is -32.4%. Also, the AC50 under setting [2] is 0.00411 µM [falling, full curve, poor fit]. In the case of `CCN(CC(=O)Nc1ccc(NC(C)=O)cc1)C(=O)CCCOc1cccc(C)c1`, the cell number change was -5.86%. Take `COc1ccc(-n2c(SCC(=O)N3CCCC3)nc3ccccc3c2=O)cc1`: the cell number change was -10.3%. Further, the half-maximal activity concentration (AC50) under setting [2] is 0.411 µM [falling, partial curve, poor fit]. For the compound `C/C(=N\NC(=O)c1ccccc1F)c1cccc(NC(=O)c2ccc(C)cc2)c1`, the cell number change was -6.93%. Further, the half-maximal activity concentration (AC50) under setting [2] is 0.00411 µM [falling, full curve, poor fit]. For the compound `CCN(CC1CCCO1)C(=O)CCc1nnc(CCc2ccccc2OC)o1` (stereo not given), the cell number change is 13.5%. Besides, under setting [2], the half-maximal activity concentration (AC50) was 25.9 µM [rising, partial curve]. As to `CCn1cc(C(=O)NCCC(C)C)c(=O)c2cc(S(=O)(=O)N3CCCCC3)ccc21`, the cell number change was determined as 28.6%. In addition, the AC50 under setting [2] was 6.51 µM [falling, single point]. With `CN(Cc1c(F)cccc1Cl)C(=O)c1ccc(NC(=O)CC2SC(N3CCCC3)=NC2=O)cc1` (stereo not given), the AC50 under setting [1] is 2.91 µM [rising, partial curve].

Take `CS(=O)(=O)c1cc([N+](=O)[O-])c(Sc2nc3ccccc3[nH]2)c([N+](=O)[O-])c1`: the cell number change was -91%. Moreover, the AC50 under setting [1] is 8.2 µM [falling, partial curve]. In addition, under setting [2], the AC50 was 29.1 µM [falling, single point]. In the case of `COc1ccc(N2CCN(C(=O)CNS(=O)(=O)c3ccc(C)c(C)c3)CC2)cc1`, the cell number change stood at 16.5%. Further, the concentration at half-maximal activity (AC50) under setting [1] was 5.8 µM [rising, single point]. Moreover, under setting [2], the AC50 is 0.116 µM [rising, full curve, poor fit].

`COc1ccc(C)cc1NC(=O)CSc1ccc(-c2sc(C)nc2C)nn1`: the cell number change is -48.1%. The AC50 under setting [1] is 9.2 µM [falling, partial curve]. Turning to `O=C(Cn1c(=O)n(CCc2c[nH]c3ccccc23)c(=O)c2cccnc21)Nc1ccccc1F`, the cell number change was determined as 12%. Further, under setting [2], the half-maximal activity concentration (AC50) is 0.259 µM [rising, partial curve].

`OC1CCC(NC(=S)Nc2ccc(SC(F)F)cc2)CC1` (stereo not given): the cell number change is -3.06%. Moreover, under setting [1], the concentration at half-maximal activity (AC50) is 0.00461 µM [falling, full curve, poor fit]. Besides, the AC50 under setting [2] is 0.0651 µM [falling, full curve, poor fit]. Consider `Cc1cccc(-n2nc3c([n+]2[O-])CCc2nonc2-3)c1C`, for which the cell number change is -4.78%. In addition, the AC50 under setting [2] is 0.00517 µM [falling, full curve, poor fit]. For the compound `O=C(Nc1ccccc1Cl)c1sccc1-c1ccccc1`, the cell number change was -1.8%. Moreover, under setting [2], the concentration at half-maximal activity (AC50) is 0.58 µM [falling, single point]. For `CC1=NN(C(N)=S)C(=O)C1N=Nc1ccccc1Cl` (stereo not given), the AC50 under setting [2] is 29.1 µM [falling, single point]. Take `O=C(Nc1ccccc1)N1CCCC(c2nc(-c3cccs3)no2)C1` (stereo not given): the cell number change turned out to be 64.2%. Also, the AC50 under setting [1] is 29.1 µM [rising, single point]. Besides, the concentration at half-maximal activity (AC50) under setting [2] was 0.517 µM [rising, partial curve, poor fit]. As to `COCC(=O)N(Cc1cc2cccc(C)c2[nH]c1=O)c1ccccc1`, the cell number change is 9.12%. For the compound `O=C(Nc1nc(-c2ccc(F)c(F)c2)cs1)C1=COCCO1`, the cell number change was -13.7%. For the same compound, under setting [2], the concentration at half-maximal activity (AC50) was 11.6 µM [falling, partial curve]. For the compound `CCOc1ccc(NC(=O)COc2ccc(C(=O)NCC3CCCO3)cc2OC)cc1` (stereo not given), the cell number change is 18.2%. Further, the AC50 under setting [2] was 0.184 µM [rising, full curve, poor fit]. In the case of `CCC(=O)Nc1ccc(Cl)c(-c2nc3ncccc3o2)c1`, the cell number change stood at 4.99%.

With `CCCCN(C(=O)c1ccc(NC2CC2)c([N+](=O)[O-])c1)c1c(N)n(CC(C)C)c(=O)[nH]c1=O`, the cell number change turned out to be 9.43%. For the same compound, the half-maximal activity concentration (AC50) under setting [1] is 0.103 µM [falling, full curve, poor fit]. Take `COC(=O)CSc1nnc(-c2ccoc2C)n1-c1ccc(C)cc1`: the cell number change turned out to be 8.53%. For the same compound, the AC50 under setting [2] was 4.11 µM [falling, full curve, poor fit]. With `Cc1ccc2nc3c(cc2c1)CN(Cc1ccco1)C(=NCC1CCCO1)S3` (stereo not given), the cell number change stood at 84%. Also, under setting [1], the AC50 was 7.31 µM [rising, partial curve].

As to `COc1ccc(NC(=O)CN(C)CC(=O)NC2CCC(C)CC2)cc1` (stereo not given), the cell number change is -9.65%. In addition, the AC50 under setting [2] is 0.082 µM [falling, full curve, poor fit]. For `CCOC(=O)Nc1ccc2c(c1)N(C(=O)CCCl)c1ccccc1[S@]2=O`, the cell number change was -31.4%. Under setting [1], the half-maximal activity concentration (AC50) is 14.6 µM [falling, single point]. Take `COc1ccc(CCNC(=O)C(=O)NCCC2CCCCN2S(=O)(=O)c2cccs2)cc1` (stereo not given): the cell number change is -6.39%. In the case of `CCN(CC)C(=O)CSc1nnc(-c2cc(-c3ccc(Cl)cc3)nc3ccccc23)o1`, the cell number change came out at 27.8%. Besides, the AC50 under setting [1] was 0.411 µM [rising, full curve, poor fit]. In addition, the half-maximal activity concentration (AC50) under setting [2] is 0.651 µM [rising, single point]. In the case of `CN(C)S(=O)(=O)N1CCN(Cc2ccccc2)CC1`, the cell number change is -17.8%. Further, the concentration at half-maximal activity (AC50) under setting [1] is 1.84 µM [falling, partial curve, poor fit]. Take `CC(=O)c1ccc(NC(=O)NC2CCCCCCC2)cc1`: the cell number change turned out to be 1.73%. Turning to `CN1CCN(C(=O)c2ccc(CNS(=O)(=O)c3cccc(Cl)c3)cc2)CC1`, the cell number change was -4.05%. Moreover, the half-maximal activity concentration (AC50) under setting [2] is 0.731 µM [falling, single point]. Regarding `CC#CC(=O)N1CCC(C(=O)Nc2ccc(Oc3ccccc3)nc2)CC1`, the cell number change was -0.463%. As to `CC(CN1CCOCC1)OC(=O)c1ccc(C(C)(C)C)cc1` (stereo not given), the cell number change is -47.8%. Also, under setting [1], the half-maximal activity concentration (AC50) is 14.6 µM [falling, partial curve, poor fit]. The AC50 under setting [2] is 0.58 µM [rising, single point]. In the case of `O=C(c1cc2cc(C(F)(F)F)ccc2s1)N1CCOCC1`, the cell number change is 6.52%.

Take `Cc1ccc(S(=O)(=O)NCCCCCC(=O)NC(C)(C)CO)cc1`: the cell number change was -0.482%. Besides, the half-maximal activity concentration (AC50) under setting [1] is 0.206 µM [falling, full curve, poor fit]. For the compound `Cc1nc(CNC(=O)c2cc(COc3c(F)cccc3F)on2)cs1`, the cell number change is 21.3%. For the same compound, under setting [2], the AC50 was 1.03 µM [rising, full curve]. On to `COC(=O)c1cc2c(-c3ccccc3)cc3ccccn3c-2c1C(=O)OC`, for which the cell number change was -24.5%. The half-maximal activity concentration (AC50) under setting [1] is 0.206 µM [rising, partial curve]. Further, the AC50 under setting [2] is 29.1 µM [falling, single point]. Turning to `CC(C)NS(=O)(=O)c1ccc(OCC(=O)NCc2ccccc2)cc1`, the cell number change is 9.63%. Moreover, under setting [1], the half-maximal activity concentration (AC50) is 0.0058 µM [falling, full curve, poor fit]. Moreover, the AC50 under setting [2] is 5.8 µM [falling, single point].

Consider `COc1ccccc1C(=O)NCC(=O)N/N=C/c1cn[nH]c1-c1ccccc1`, for which the cell number change was -4.1%. The AC50 under setting [1] is 1.84 µM [rising, single point].

Consider `CCOC(=O)Cn1c(=O)oc2cc(S(=O)(=O)N(C)Cc3ccco3)ccc21`, for which the cell number change is -31.3%. Also, under setting [1], the AC50 is 1.64 µM [falling, partial curve, poor fit].

Turning to `O=C(/C=C/c1cccc([N+](=O)[O-])c1)n1cnc2ccccc21`, the cell number change came out at 19.7%.

Consider `O=S(=O)(Nc1nc2ccccc2nc1Cl)c1ccccc1C(F)(F)F`, for which the cell number change came to 17.6%. In addition, under setting [2], the concentration at half-maximal activity (AC50) is 29.1 µM [rising, single point]. As to `O=C(NCC(c1cccnc1)N1CCN(c2ccc(F)cc2)CC1)c1ccc(F)cc1` (stereo not given), the AC50 runs as follows: under setting [1], 0.13 µM [rising, full curve, poor fit]; under setting [2], 0.146 µM [rising, full curve, poor fit].

Consider `Cc1ccc2sc(C)[n+](CCCS(=O)(=O)[O-])c2c1`, for which the cell number change was -50%. The concentration at half-maximal activity (AC50) under setting [1] was 29.1 µM [falling, single point]. As to `CCOC(=O)CSc1nnc(NC(=O)CCc2ccccc2)s1`, the cell number change was -2.97%. The AC50 under setting [2] is 18.4 µM [rising, single point].

Regarding `Fc1ccc(C2CC(c3ccc(F)cc3)n3ncnc3N2)cc1` (stereo not given), the cell number change turned out to be 6.38%. Besides, under setting [2], the half-maximal activity concentration (AC50) was 0.291 µM [rising, full curve, poor fit].

As to `O=C(/C=C/c1ccccc1)Nc1ncn[nH]1`, the cell number change is -20.2%. In addition, the AC50 under setting [2] was 16.4 µM [falling, single point].

As to `CCOC(=O)N1CCN(C(=O)C2CCN(S(=O)(=O)c3cc(OC)ccc3OC)CC2)CC1`, the cell number change came to 27.9%. For the compound `O=C(CSc1ccc([N+](=O)[O-])cn1)Nc1ccc2c(c1)OCO2`, the cell number change was -2.7%. For the same compound, under setting [2], the AC50 was 11.6 µM [rising, single point]. Turning to `COc1cccc(-c2nnc(NC(=O)CCS(=O)(=O)c3ccc(C)cc3)o2)c1`, the cell number change is 25%. Also, the AC50 under setting [1] was 4.61 µM [rising, full curve, poor fit]. With `Cc1nc2ccc(NC(=O)COc3cccc(F)c3)cc2s1`, the AC50 reads like this: under setting [1], 0.103 µM [rising, single point]; under setting [2], 0.058 µM [rising, partial curve, poor fit]. In the case of `O=C(CSc1ncn[nH]1)CSc1ncn[nH]1`, the cell number change amounted to 1.57%. Moreover, the AC50 under setting [2] was 0.461 µM [falling, single point].

For the compound `CCOC(=O)c1cnc2c(C(F)(F)F)cccc2c1NCCCN1CCOCC1`, the cell number change was -2.21%. Also, the AC50 under setting [2] was 20.6 µM [falling, single point].

On to `COc1ccc(Oc2ccc(N/C=C/C(=O)C(C)(C)C)cc2)cc1`, for which the cell number change was 23.2%. In addition, the AC50 under setting [1] was 0.103 µM [rising, full curve, poor fit].

Take `O=C(CCCN1C(=O)C2CCCCN2C1=O)N1CCN(c2ccc([N+](=O)[O-])cc2)CC1` (stereo not given): under setting [2], the concentration at half-maximal activity (AC50) is 0.58 µM [rising, single point]. As for `COc1ccc(CCN(Cc2cc3cc(C)cc(C)c3nc2Cl)C(=O)C2CC2)cc1`, the cell number change was -19.9%. In addition, under setting [2], the AC50 is 0.231 µM [falling, full curve, poor fit]. Consider `O=C(NCCCN1CCCCC1)C1CCCN(c2ncnc3c2nc2n3CCCCC2)C1` (stereo not given), for which, under setting [2], the AC50 is 29.1 µM [falling, single point].

As for `CCOC(=O)c1sc(C)c(C(=O)NCC(C)(C)CN(C)C)c1N`, the cell number change was determined as 13.1%. Under setting [2], the AC50 was 0.58 µM [rising, single point].

As for `CCCCNC(=O)NS(=O)(=O)c1ccc(NS(=O)(=O)c2ccccc2)cc1`, the cell number change was -24.6%. Further, under setting [1], the half-maximal activity concentration (AC50) was 4.11 µM [falling, full curve, poor fit]. For the same compound, the half-maximal activity concentration (AC50) under setting [2] is 1.03 µM [rising, full curve].

As a reminder, the AC50 is the concentration giving half of the maximal activity seen. A high value points to weaker potency.
